The results in this text go back to patent publication US11286288B2 (VALLAURIX PTE. LTD., priority 2015, dated 2022).

The nature of this data set: peptide synthesis. The conditions noted are these: whole synthesis.
Turning to “(C2H5)3N—CH2—CO-Nle-Glu-His-D-Phe-Arg-Trp-NH2”, the “final HPLC purity” value is reported as 99%.
As for “(C2H5)3N—CH2—CO-Nle-Glu-His-D-Phe-homoArg-Trp-NH2”, the “final HPLC purity” value is 99.4%.
“(CH3)3N—(CH2)3—CO-Nle-Glu-His-D-Phe-Arg-Trp-NH2”: the “final HPLC purity” value is recorded as 98.9%.
Next, “(CH3)3N—(CH2)3—CO-Nle-Glu-His-D-Phe-homoArg-Trp-NH2”: 98.2%.
